Assay results reported in patent US20240002458A1, “NOVEL VHL SMALL MOLECULE PROBES” (St. Jude Children's Research Hospital, priority 2020, published 2024).

Target: GST-VCB protein complex (Homo sapiens, UniProt P40337)
Test: BODIPY FL VH032 (5)-mediated pVHL TR-FRET binding assay (competition)

For `Cc1ncsc1-c1ccc(CNC(=O)[C@@H]2C[C@@H](O)CN2C(=O)[C@@H](NC(=O)OC(C)(C)C)C(C)(C)C)cc1` [BOC-VH032 (8)], the “sensitivity improvement of TR-FRET assay (Ki) over reported FAM-HIF-1α peptide (19-mer) FP assay (Kd)” value was 3.09 fold and (3.09-fold).

Not every entry of the source has a single result; some have several. This list holds those alone. An entry can have further records. Values given together differ for a reason that is not stated; dose, time, organism, isomer or construct need not be as stated for each record.
